From the supplement of paper PMC12823440, “Inhibitors supercharge kinase turnover through native proteolytic circuits” (Nature, 2025)
Where a name gives a salt, the structure may show the parent alone. The list shows a part of the results. Hit calls seldom repeat between salt and free forms of one compound.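 In K562 cells expressing nanoluciferase-fused kinases, luminescence was recorded at 4 h intervals between 2 and 18 h, normalized as percent of control with DMSO at 100% and a positive control at 0%. A significant (2 sigma) signal drop marks a time point as decreased. The authors' rule for a hit is not shown and takes in more than the number of time points.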

Protein sequences, listed by entry. Tags and fused reporters are not part of them.
UniProt P07947, whole entry, looked up: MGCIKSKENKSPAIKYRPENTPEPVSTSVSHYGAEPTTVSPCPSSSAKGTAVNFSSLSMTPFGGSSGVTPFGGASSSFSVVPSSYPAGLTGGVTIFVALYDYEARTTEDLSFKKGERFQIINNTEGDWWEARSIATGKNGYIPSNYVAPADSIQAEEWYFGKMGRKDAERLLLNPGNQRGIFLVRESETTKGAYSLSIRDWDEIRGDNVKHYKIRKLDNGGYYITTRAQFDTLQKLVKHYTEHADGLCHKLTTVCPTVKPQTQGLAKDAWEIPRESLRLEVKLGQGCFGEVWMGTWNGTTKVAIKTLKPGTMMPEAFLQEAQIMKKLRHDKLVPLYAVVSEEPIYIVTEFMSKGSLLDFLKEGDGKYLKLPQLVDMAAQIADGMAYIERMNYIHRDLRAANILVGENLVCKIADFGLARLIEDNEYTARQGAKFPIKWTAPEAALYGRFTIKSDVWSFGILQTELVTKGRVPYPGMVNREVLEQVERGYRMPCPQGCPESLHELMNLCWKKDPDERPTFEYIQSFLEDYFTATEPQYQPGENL

target: YES1 (UniProt P07947); experiment: kinase-Nluc reporter destabilization hit call (1 = scored as downregulated) (binary); higher = compound decreases kinase abundance; settings: K562; 2-18 h

kinase-Nluc reporter destabilization hit call, inactive:
O=C(Nc1ccccc1C(=O)NC1CCCCNC1=O)c1cc2ccccc2s1 (centres undefined) (10 µM) 0
CCOc1cc(=O)[nH]cc1-c1ccc(CC(=O)Nc2cc(C(C)(C)C(F)(F)F)on2)c(F)c1 (10 µM) 0
Cn1cnc2c(F)c(Nc3ccc(Br)cc3F)c(C(=O)NOCCO)cc21 [Binimetinib] (10 µM) 0
Cc1ccc(NC(=O)N2CCN(c3nc(N)nc4sc(-c5cccnc5)nc34)CC2)cc1 [PI4KIII beta inhibitor 3] (10 µM) 0
CC(C1CC1)n1cnc2c(NCc3cccc(C(F)(F)F)c3)nc(NCCN(C)C)nc21 (centres undefined) (10 µM) 0
CCn1c(N)c(C(=O)NC)c(=O)c2ccc(C#CC(C)(O)COC)nc21 (centres undefined) (10 µM) 0
N#Cc1cc(N2CCC(C(=O)N3N=CC[C@H]3c3cc(F)cc(F)c3)CC2)ncn1 (10 µM) 0
CN1CCN(Cc2ccc(-c3cn(C4CCC(O)CC4)c4nc(NCCC5CC5)ncc34)cc2)CC1 (centres undefined) (2.5 µM) 0
COc1ccc(Cl)cc1N(CC(=O)Nc1ccc2c(c1)OCO2)S(=O)(=O)c1ccccc1 (2.5 µM) 0
CS[C@@]1(C(=O)Nc2ccc3[nH]nc(-c4ccc(OC(C)C)nc4)c3c2)CCN(CC(=O)N2CC=C(c3ccc(-c4ncn(C)n4)cc3)CC2)C1 (2.5 µM) 0
CCc1cc(Nc2nccc(-c3c(-c4ccc(OC)c(C(=O)Nc5c(F)cccc5F)c4)nc4ccccn34)n2)c(OC)cc1N1CCC(N2CCN(S(C)(=O)=O)CC2)CC1 (2.5 µM) 0
O=C(O)/C=C(\CCc1ccc(Cl)cc1)c1ccccc1 (10 µM) 0
Cc1cccc(CC(=O)N2CCc3c2ccc(-c2cn(C)c4ncnc(N)c24)c3F)n1 (10 µM) 0
CN(C)CCn1cc2cc(NC(=O)c3cccc(C(F)(F)F)n3)c(C(C)(C)O)cc2n1 (10 µM) 0
Cc1cc(N2CCOCC2)ccc1Nc1nc(NC2CCCCC2)c2[nH]cnc2n1 (10 µM) 0
COc1c(Nc2ncc(Cl)c(N[C@H]3[C@@H](C(N)=O)[C@@H]4C=C[C@H]3C4)n2)ccc2c1CC[C@@H](N1CCOCC1)CC2 (10 µM) 0
COc1cc2ncnc(Nc3cc(Br)c(O)c(Br)c3)c2cc1OC (2.5 µM) 0
Cc1cncc2cccc(S(=O)(=O)N3CCCNC[C@@H]3C)c12 [H-1152 (dihydrochloride)] (10 µM) 0
Nc1ccc(O)c(C(=O)O)c1 [5-Aminosalicylic Acid] (10 µM) 0
CC(C)(C)S(=O)(=O)c1cc2c(Nc3ccc4scnc4c3)ncnc2cc1OCCOP(=O)(O)O (2 µM) 0
CC(C)(CCCCCC(O)CCCCCC(C)(C)C(=O)O)C(=O)O [Bempedoic acid] (10 µM) 0
Cc1n[nH]c2ncc(C(=O)N3CCC[C@H]3c3ccc(Cl)cc3)cc12 (10 µM) 0
CCOC(=O)c1c(Nc2ccccc2Cl)oc(/C=C2\C=Nc3ncccc32)c1O (10 µM) 0
O=C(CCl)c1c[nH]c2ccccc12 (2.5 µM) 0
O=C(Nc1ccc(F)cc1F)C(NC(=S)Nc1cc(C(F)(F)F)cc(C(F)(F)F)c1)c1ccccc1 (racemic) (2.5 µM) 0
COc1cc2nc(NC3CC3)nc(NC3CCN(C(C)C)CC3)c2cc1OC (10 µM) 0
C=CC(=O)Nc1cc(Nc2nccc(-c3cn(C)c4ccccc34)n2)c(OCC(F)(F)F)nc1N(C)CCNC [AST5902  (trimesylate)] (2.5 µM) 0
CN(C)c1cc[n+](Cc2ccc(OCCOc3ccc(C[n+]4ccc(N(C)C)cc4)cc3)cc2)cc1 (10 µM) 0
COc1cc(N2CCC(O)CC2)ccc1Nc1nc(Nc2ccccc2S(=O)(=O)C(C)C)c2[nH]cnc2n1 (10 µM) 0
Cc1cccc(-c2nn3c(c2-c2ccnc4ccc(C(N)=O)cc24)CCC3)n1 [Galunisertib] (10 µM) 0
C[C@@H]1COC(Nc2ccc3ncnc(Nc4ccc(OCc5nccs5)c(Cl)c4)c3c2)=N1 [Varlitinib] (10 µM) 0
CS(=O)(=O)c1ccc([C@@H](CC2CCCC2)C(=O)Nc2nccs2)cc1 (10 µM) 0
S=C(NCc1ccc2c(c1)OCO2)N1CCN(c2ncnc3c2oc2ccccc23)CC1 [Amuvatinib] (2.5 µM) 0
CCC(F)(F)c1cc(N2CCC(S(C)(=O)=O)CC2)nc2sc(C(N)=O)c(N)c12 (10 µM) 0
O=c1cc(N2CCOCC2)oc2c(-c3cccc4c3sc3ccccc34)cccc12 (10 µM) 0
N#Cc1cnc(Nc2cc(NC[C@H]3CNCCO3)c(C(F)(F)F)cn2)cn1 (10 µM) 0
Nc1ccc(C(=O)Nc2cccc(-c3nc(N4CCOCC4)c4oc5ncccc5c4n3)c2)cn1 (10 µM) 0
COc1cc(N2CCC(N3CCN(C)CC3)CC2)ccc1Nc1ncnc(Nc2ccccc2S(=O)(=O)C(C)C)n1 (10 µM) 0
CO[C@@H]1[C@H](N(C)C(=O)c2ccccc2)C[C@H]2O[C@]1(C)n1c3ccccc3c3c4c(c5c6ccccc6n2c5c31)C(=O)NC4 [Midostaurin] (2.5 µM) 0

Pulled by compound from above (two):
kinase-Nluc reporter destabilization hit call, inactive:
Cc1cc(N2CCOCC2)ccc1Nc1nc(NC2CCCCC2)c2[nH]cnc2n1 (10 µM) 0
COc1cc(N2CCC(O)CC2)ccc1Nc1nc(Nc2ccccc2S(=O)(=O)C(C)C)c2[nH]cnc2n1 (10 µM) 0
